# Measured values: the supplement of paper PMC10849652
# Sequences of proteins named here, by UniProt entry; tags and fusion partners are left off. A change or cut given only in a name is not applied to a line headed by its entry.
# UniProt Q7Z3U7: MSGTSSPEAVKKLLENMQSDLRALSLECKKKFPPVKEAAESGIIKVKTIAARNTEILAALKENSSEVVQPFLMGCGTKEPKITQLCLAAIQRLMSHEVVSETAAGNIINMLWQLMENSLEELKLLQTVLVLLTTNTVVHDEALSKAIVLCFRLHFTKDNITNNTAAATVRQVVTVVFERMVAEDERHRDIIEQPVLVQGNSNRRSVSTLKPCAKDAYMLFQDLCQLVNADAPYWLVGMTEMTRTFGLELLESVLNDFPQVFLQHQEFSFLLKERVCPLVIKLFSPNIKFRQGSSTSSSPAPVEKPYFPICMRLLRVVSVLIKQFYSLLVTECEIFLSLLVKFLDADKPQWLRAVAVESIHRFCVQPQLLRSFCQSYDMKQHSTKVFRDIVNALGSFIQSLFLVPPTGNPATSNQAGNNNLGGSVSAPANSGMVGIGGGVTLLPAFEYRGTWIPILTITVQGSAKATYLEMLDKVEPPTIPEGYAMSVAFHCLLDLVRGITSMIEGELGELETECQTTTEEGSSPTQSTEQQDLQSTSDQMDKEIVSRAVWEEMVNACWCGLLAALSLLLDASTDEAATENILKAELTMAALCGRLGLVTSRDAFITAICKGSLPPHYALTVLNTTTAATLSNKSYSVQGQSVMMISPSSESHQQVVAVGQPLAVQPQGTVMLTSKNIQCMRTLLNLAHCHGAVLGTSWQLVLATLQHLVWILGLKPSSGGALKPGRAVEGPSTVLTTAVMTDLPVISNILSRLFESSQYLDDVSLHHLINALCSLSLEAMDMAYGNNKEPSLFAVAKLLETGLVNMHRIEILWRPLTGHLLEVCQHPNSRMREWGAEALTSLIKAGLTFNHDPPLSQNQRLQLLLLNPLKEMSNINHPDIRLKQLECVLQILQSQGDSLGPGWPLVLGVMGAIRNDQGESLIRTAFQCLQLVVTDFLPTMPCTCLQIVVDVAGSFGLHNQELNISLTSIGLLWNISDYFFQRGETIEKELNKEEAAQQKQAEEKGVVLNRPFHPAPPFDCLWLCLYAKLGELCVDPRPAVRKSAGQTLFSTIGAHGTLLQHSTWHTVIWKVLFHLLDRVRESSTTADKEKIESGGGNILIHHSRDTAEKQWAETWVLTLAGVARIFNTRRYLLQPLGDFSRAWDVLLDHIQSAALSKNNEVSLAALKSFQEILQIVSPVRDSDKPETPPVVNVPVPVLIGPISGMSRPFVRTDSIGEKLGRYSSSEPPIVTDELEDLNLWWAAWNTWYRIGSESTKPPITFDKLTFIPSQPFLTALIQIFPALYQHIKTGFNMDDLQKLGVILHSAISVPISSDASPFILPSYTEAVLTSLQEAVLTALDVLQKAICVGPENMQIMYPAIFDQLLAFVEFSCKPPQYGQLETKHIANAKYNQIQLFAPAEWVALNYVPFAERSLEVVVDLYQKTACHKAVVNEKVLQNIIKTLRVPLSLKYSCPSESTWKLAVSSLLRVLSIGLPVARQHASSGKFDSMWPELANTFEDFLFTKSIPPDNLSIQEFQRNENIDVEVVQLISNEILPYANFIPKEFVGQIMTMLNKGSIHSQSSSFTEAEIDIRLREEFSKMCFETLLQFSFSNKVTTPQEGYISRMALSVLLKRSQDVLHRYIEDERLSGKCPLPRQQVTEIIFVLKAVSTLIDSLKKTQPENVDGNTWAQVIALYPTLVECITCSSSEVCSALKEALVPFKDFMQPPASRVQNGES
# UniProt Q14165: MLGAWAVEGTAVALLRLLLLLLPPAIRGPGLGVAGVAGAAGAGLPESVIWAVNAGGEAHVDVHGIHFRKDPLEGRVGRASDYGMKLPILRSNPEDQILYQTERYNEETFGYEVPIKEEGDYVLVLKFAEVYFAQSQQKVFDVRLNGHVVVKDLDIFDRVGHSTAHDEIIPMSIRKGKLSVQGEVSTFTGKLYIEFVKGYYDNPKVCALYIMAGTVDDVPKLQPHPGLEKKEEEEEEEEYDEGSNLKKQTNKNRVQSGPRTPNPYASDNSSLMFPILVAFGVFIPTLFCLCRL
# UniProt Q99583: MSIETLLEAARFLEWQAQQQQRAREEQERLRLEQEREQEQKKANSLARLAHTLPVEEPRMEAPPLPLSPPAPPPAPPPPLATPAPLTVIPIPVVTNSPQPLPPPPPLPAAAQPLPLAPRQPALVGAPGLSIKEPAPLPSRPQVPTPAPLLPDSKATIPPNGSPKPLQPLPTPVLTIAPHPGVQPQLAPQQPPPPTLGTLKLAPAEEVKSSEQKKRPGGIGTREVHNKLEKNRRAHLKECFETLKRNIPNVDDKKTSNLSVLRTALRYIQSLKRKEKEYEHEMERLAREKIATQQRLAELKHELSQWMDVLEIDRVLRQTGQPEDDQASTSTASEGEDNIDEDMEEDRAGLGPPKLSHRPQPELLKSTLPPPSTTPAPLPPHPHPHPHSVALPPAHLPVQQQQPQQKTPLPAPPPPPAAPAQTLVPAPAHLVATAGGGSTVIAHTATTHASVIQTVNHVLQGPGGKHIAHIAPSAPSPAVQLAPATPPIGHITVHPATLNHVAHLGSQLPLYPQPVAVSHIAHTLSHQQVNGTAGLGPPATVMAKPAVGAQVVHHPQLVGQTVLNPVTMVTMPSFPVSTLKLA
# UniProt Q9H8M7: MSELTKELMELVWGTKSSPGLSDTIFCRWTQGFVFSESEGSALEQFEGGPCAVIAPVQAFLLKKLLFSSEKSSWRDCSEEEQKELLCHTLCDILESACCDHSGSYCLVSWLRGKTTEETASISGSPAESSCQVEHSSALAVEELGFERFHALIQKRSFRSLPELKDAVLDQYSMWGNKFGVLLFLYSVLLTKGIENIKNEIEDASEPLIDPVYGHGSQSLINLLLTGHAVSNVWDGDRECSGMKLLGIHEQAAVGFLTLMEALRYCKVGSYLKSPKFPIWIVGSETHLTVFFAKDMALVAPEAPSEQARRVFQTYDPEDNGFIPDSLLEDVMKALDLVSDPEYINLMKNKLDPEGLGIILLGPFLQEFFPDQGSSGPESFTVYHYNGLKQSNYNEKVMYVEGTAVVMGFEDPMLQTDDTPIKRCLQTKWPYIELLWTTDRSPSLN
# UniProt Q99549: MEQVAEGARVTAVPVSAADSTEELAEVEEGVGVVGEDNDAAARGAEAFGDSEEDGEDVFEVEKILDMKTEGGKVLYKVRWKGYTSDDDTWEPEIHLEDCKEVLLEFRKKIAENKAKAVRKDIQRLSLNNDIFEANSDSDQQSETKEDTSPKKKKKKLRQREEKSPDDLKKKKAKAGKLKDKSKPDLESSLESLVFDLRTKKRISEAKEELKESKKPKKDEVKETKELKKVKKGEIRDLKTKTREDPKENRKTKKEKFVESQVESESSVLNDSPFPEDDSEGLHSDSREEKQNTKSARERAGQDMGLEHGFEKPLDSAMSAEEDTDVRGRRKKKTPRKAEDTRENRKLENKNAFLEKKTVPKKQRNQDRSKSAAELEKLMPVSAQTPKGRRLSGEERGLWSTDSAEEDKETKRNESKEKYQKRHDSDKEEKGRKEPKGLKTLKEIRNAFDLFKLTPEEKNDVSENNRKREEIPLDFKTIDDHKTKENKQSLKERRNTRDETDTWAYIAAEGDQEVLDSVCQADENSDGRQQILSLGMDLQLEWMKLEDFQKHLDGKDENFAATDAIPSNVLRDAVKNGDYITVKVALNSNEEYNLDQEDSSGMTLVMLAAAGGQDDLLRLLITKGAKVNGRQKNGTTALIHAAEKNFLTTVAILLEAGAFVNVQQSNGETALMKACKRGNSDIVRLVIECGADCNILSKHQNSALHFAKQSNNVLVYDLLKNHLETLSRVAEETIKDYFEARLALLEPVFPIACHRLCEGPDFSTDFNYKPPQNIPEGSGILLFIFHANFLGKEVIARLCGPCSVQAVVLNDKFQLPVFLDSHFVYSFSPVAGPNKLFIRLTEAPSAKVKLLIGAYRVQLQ
# UniProt Q5XKP0: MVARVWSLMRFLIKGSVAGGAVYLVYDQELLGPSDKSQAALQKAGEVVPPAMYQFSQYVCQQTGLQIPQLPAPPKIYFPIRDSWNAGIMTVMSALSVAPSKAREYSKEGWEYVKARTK
# UniProt Q03111: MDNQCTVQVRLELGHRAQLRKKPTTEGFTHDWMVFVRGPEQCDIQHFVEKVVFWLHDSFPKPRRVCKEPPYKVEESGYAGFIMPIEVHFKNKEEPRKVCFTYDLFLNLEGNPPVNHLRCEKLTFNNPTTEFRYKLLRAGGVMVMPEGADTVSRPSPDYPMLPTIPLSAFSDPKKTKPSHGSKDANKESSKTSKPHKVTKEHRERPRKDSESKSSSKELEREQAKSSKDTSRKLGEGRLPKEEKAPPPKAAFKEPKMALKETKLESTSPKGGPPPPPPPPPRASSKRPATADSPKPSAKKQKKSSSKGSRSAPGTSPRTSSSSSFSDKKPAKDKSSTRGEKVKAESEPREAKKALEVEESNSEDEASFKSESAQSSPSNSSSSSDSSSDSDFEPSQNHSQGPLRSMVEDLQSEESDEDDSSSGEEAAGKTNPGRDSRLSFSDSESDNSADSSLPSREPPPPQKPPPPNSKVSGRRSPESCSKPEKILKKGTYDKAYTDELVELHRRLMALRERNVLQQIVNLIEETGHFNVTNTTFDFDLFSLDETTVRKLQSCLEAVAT
# UniProt Q9HAP2: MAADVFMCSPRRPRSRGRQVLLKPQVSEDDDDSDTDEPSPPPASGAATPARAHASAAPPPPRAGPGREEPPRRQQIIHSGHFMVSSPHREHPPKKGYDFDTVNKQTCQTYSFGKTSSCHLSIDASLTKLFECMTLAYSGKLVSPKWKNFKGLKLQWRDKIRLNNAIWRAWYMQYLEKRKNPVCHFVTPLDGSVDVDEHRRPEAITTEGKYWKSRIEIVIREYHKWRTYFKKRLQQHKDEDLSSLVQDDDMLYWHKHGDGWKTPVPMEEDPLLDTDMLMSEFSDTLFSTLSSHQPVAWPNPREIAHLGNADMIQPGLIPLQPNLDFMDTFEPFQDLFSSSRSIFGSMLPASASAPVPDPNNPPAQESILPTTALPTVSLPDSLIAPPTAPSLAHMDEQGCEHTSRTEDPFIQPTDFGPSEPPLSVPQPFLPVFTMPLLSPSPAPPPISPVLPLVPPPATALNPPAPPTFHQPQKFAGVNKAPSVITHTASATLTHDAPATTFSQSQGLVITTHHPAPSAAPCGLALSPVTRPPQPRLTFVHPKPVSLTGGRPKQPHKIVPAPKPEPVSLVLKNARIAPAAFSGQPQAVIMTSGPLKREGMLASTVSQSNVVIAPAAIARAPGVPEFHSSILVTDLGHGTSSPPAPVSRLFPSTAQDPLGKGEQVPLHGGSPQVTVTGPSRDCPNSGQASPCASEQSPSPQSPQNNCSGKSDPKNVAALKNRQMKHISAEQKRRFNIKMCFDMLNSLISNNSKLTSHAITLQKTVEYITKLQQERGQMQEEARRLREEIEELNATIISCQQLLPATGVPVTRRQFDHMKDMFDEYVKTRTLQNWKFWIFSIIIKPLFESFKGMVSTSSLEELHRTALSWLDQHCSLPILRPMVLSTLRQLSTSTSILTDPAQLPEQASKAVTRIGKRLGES
# UniProt Q9UH92: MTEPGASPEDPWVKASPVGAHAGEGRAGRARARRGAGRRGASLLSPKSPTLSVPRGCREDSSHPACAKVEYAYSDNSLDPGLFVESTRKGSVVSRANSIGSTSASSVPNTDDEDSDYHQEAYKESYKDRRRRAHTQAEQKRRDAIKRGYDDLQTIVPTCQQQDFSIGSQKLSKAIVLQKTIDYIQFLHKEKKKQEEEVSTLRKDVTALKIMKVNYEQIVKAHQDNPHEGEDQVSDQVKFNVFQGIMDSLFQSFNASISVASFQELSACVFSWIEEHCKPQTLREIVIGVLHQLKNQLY
# UniProt P08473: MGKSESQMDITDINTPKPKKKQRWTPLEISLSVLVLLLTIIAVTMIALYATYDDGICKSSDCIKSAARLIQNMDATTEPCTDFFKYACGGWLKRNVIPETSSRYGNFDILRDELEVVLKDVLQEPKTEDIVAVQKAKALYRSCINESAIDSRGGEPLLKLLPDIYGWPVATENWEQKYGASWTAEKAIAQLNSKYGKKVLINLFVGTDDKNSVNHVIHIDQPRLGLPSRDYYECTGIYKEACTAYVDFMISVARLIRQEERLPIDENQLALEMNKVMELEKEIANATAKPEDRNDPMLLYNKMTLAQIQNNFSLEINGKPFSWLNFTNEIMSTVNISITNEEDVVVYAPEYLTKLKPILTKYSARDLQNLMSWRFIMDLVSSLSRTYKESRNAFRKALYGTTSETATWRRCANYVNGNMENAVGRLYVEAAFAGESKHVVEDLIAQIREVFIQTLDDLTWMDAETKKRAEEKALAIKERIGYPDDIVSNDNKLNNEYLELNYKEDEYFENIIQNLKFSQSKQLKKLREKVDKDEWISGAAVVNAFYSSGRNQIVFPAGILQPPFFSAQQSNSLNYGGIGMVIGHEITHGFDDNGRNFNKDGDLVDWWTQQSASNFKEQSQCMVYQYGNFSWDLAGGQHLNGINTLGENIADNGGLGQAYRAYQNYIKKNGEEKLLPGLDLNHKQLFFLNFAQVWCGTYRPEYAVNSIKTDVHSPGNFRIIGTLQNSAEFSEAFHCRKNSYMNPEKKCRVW
# Some of the results follow.
# Assays:
# Assay in all cases: log2 fold change, soluble protein after heating vs DMSO (PISA); higher = thermal stabilisation; K562 cells, 10 uM, 30 min; active = over 0.2 and 3.5 SD of the protein, either way, in both replicates (recomputed)
# [1] = compound: COC1=CC=C(C=C1)CN2C=CC3=C2C=C(C=C3)C(=O)NO
# Method in brief: (§1)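 Aliquots of K562 cells (2×10^6 cells/mL) treated with 10 μM compound for 30 min were heated for 3 min over 48°C-58°C. After pooling and extraction in PBS with 0.5% NP-40 at 4°C, soluble protein from a 21,000xg, 90 min spin was quantified by TMTpro 16plex LC-MS/MS with channel sums equalised. Thermal stability is expressed against control samples, from duplicates, as a log2 fold change.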
# filanesib = compound: CON(C)C(=O)N1N=C(c2cc(F)ccc2F)S[C@@]1(CCCN)c1ccccc1 [filanesib]
# Method in brief: as §1
# zotarolimus = compound: CO[C@H]1C[C@@H]2CC[C@@H](C)[C@@](O)(O2)C(=O)C(=O)N2CCCC[C@H]2C(=O)O[C@H]([C@H](C)C[C@@H]2CC[C@H](n3cnnn3)[C@H](OC)C2)CC(=O)[C@H](C)/C=C(\C)[C@@H](O)[C@@H](OC)C(=O)[C@H](C)C[C@H](C)/C=C/C=C/C=C/1C [zotarolimus]
# Method in brief: as §1
# idasanutlin = compound: COc1cc(C(=O)O)ccc1NC(=O)[C@@H]1N[C@@H](CC(C)(C)C)[C@](C#N)(c2ccc(Cl)cc2F)[C@H]1c1cccc(Cl)c1F [idasanutlin]
# Method in brief: as §1
# alisertib = compound: COc1cc(Nc2ncc3c(n2)-c2ccc(Cl)cc2C(c2c(F)cccc2OC)=NC3)ccc1C(=O)O [alisertib]
# Method in brief: as §1
# [2] = compound: COc1cc2nc(-c3cc(F)ccc3O)nc(N[C@@H]3CNC[C@H]3C(C)(C)O)c2cc1OC
# Method in brief: as §1
# gefitinib = compound: COc1cc2ncnc(Nc3ccc(F)c(Cl)c3)c2cc1OCCCN1CCOCC1 [gefitinib]
# Method in brief: as §1
# [3] = compound: COc1cccc2cc(-c3nc([C@H]4CC[C@H](C(=O)O)CC4)n4ncnc(N)c34)[nH]c12
# Method in brief: as §1
# lapatinib = compound: CS(=O)(=O)CCNCc1ccc(-c2ccc3ncnc(Nc4ccc(OCc5cccc(F)c5)c(Cl)c4)c3c2)o1 [lapatinib]
# Method in brief: as §1
# pictilisib = compound: CS(=O)(=O)N1CCN(Cc2cc3nc(-c4cccc5[nH]ncc45)nc(N4CCOCC4)c3s2)CC1 [pictilisib]
# Method in brief: as §1
Target,log2 fold change [1],log2 fold change (filanesib),log2 fold change (zotarolimus),log2 fold change (idasanutlin),log2 fold change (alisertib),log2 fold change [2],log2 fold change (gefitinib),log2 fold change [3],log2 fold change (lapatinib),log2 fold change (pictilisib)
MRPL15 (UniProt Q9P015),inactive: 0.016,inactive: 0.222,inactive: 0.072,inactive: -0.051,inactive: -0.017,inactive: -0.036,inactive: -0.059,inactive: -0.056,inactive: 0.102,inactive: -0.148
MRPL40 (UniProt Q9NQ50),inactive: -0.046,inactive: 0.154,inactive: 0.084,inactive: 0.003,inactive: -0.093,inactive: -0.097,inactive: -0.071,inactive: -0.038,inactive: 0.093,inactive: 0.011
MND1 (UniProt Q9BWT6),inactive: -0.037,inactive: -0.057,inactive: -0.077,inactive: 0.099,inactive: 0.062,inactive: -0.235,inactive: -0.193,inactive: 0.03,inactive: -0.025,inactive: 0.032
MICALL1 (UniProt Q8N3F8),inactive: -0.022,inactive: -0.042,inactive: -0.081,inactive: 0.086,inactive: 0.292,inactive: 0.145,inactive: -0.034,inactive: -0.102,inactive: -0.175,inactive: 0.059
MRM3 (UniProt Q9HC36),inactive: -0.25,inactive: 0.486,inactive: -0.001,inactive: 0.117,inactive: -0.092,inactive: -0.081,inactive: -0.035,inactive: -0.229,inactive: 0.163,inactive: -0.153
MOB4 (UniProt Q9Y3A3),inactive: 0.023,inactive: 0.001,inactive: 0.009,inactive: -0.008,inactive: -0.066,inactive: 0.014,inactive: 0.015,inactive: 0.022,inactive: 0.072,inactive: -0.003
MINK1 (UniProt Q8N4C8),inactive: -0.054,inactive: -0.003,inactive: 0.014,inactive: 0.013,inactive: -0.042,inactive: -0.064,,inactive: 0.024,inactive: 0.024,inactive: -0.019
MON2 isoform 5 (UniProt Q7Z3U7),inactive: -0.003,inactive: -0.017,inactive: 0.101,inactive: -0.147,inactive: 0.046,inactive: 0.091,inactive: 0.039,inactive: -0.004,inactive: 0.036,inactive: 0.048
MLEC (UniProt Q14165),inactive: -0.043,inactive: -0.005,inactive: 0.032,inactive: 0.009,inactive: -0.047,inactive: 0.034,inactive: -0.029,inactive: 0.006,inactive: -0.002,inactive: -0.014
MRPL47 (UniProt Q9HD33),inactive: -0.068,inactive: 0.183,inactive: 0.072,inactive: -0.042,inactive: -0.087,inactive: -0.033,inactive: -0.134,inactive: -0.186,inactive: 0.072,active: 0.745
MNT (UniProt Q99583),inactive: 0.016,inactive: -0.025,inactive: -0.062,inactive: 0.049,inactive: 0.17,inactive: -0.041,inactive: 0.168,inactive: -0.048,inactive: -0.012,inactive: 0.064
MRPL49 (UniProt Q13405),inactive: -0.149,inactive: 0.235,inactive: 0.089,inactive: -0.084,inactive: -0.076,inactive: -0.111,inactive: -0.031,inactive: -0.008,inactive: 0.081,inactive: 0.018
MINDY3 (UniProt Q9H8M7),inactive: -0.005,inactive: -0.04,inactive: 0,inactive: -0.033,inactive: -0.015,inactive: 0.077,inactive: 0.031,inactive: 0.043,inactive: -0.006,inactive: 0.072
MOGS (UniProt Q13724),inactive: -0.002,inactive: 0.007,inactive: 0.019,inactive: 0.009,inactive: -0.037,inactive: -0.061,inactive: -0.002,inactive: -0.027,inactive: 0.114,inactive: 0.015
MPHOSPH8 isoform 2 (UniProt Q99549),inactive: -0.002,inactive: 0.128,inactive: -0.191,inactive: 0.062,inactive: -0.016,inactive: 0.032,,inactive: 0.125,inactive: 0.024,
MIEF1 (UniProt L0R8F8),inactive: 0.104,inactive: -0.072,inactive: 0.023,inactive: -0.063,inactive: -0.084,inactive: -0.148,inactive: -0.005,inactive: 0,inactive: 0.135,inactive: 0.033

Target,log2 fold change [1],log2 fold change (filanesib),log2 fold change (zotarolimus),log2 fold change (idasanutlin),log2 fold change (alisertib),log2 fold change [2],log2 fold change (gefitinib),log2 fold change [3],log2 fold change (lapatinib),log2 fold change (pictilisib)
MRPL54 (UniProt Q6P161),inactive: -0.065,inactive: 0.024,inactive: -0.092,inactive: 0.108,inactive: -0.034,inactive: -0.219,inactive: -0.052,inactive: -0.003,inactive: 0.175,inactive: -0.045
MLYCD (UniProt O95822),inactive: -0.033,inactive: -0.076,inactive: -0.008,inactive: -0.095,inactive: -0.079,inactive: -0.107,inactive: 0.073,inactive: 0.069,inactive: 0.005,inactive: 0.074
MPRIP isoform 2 (UniProt Q6WCQ1),inactive: 0.101,inactive: 0.064,inactive: 0.065,inactive: 0.045,inactive: 0.133,inactive: -0.191,inactive: 0.016,inactive: 0.089,inactive: -0.03,inactive: -0.01
MICOS13 (UniProt Q5XKP0),inactive: 0,inactive: -0.095,inactive: -0.048,inactive: -0.144,inactive: -0.014,inactive: -0.082,inactive: -0.032,inactive: 0.079,inactive: -0.063,inactive: -0.001
MMS19 isoform 8 (UniProt Q96T76),inactive: -0.094,inactive: -0.036,inactive: 0.037,inactive: -0.014,inactive: -0.019,inactive: 0.06,inactive: 0.026,inactive: 0.019,inactive: -0.021,inactive: -0.008
MLLT1 (UniProt Q03111),inactive: -0.091,inactive: 0,inactive: 0,inactive: 0.029,inactive: -0.156,inactive: 0.031,inactive: -0.048,inactive: -0.056,inactive: -0.004,inactive: -0.034
MLXIP (UniProt Q9HAP2),inactive: 0.124,inactive: -0.018,inactive: 0.127,inactive: -0.013,inactive: -0.019,inactive: -0.075,inactive: -0.021,inactive: -0.073,inactive: 0.153,inactive: 0.1
MPC2 (UniProt O95563),inactive: -0.051,inactive: -0.055,inactive: -0.015,inactive: -0.01,inactive: 0.027,inactive: 0.003,inactive: 0.005,inactive: 0.024,inactive: 0.024,inactive: 0
MIF4GD isoform 3 (UniProt A9UHW6),inactive: -0.018,inactive: 0.041,inactive: 0.044,inactive: -0.011,inactive: -0.023,inactive: 0.038,inactive: -0.074,inactive: -0.014,inactive: 0.008,inactive: 0.088
MRPL46 (UniProt Q9H2W6),inactive: -0.019,inactive: 0.068,inactive: 0.1,inactive: -0.012,inactive: -0.063,inactive: -0.088,inactive: 0.005,inactive: -0.029,inactive: 0.082,inactive: 0.011
MLX (UniProt Q9UH92),inactive: -0.054,inactive: 0.027,inactive: -0.009,inactive: -0.071,inactive: -0.014,inactive: 0.025,inactive: 0.022,inactive: 0.057,inactive: -0.099,inactive: 0.05
MKLN1 (UniProt Q9UL63),inactive: 0.017,inactive: 0.073,inactive: -0.007,inactive: 0.015,inactive: -0.059,inactive: -0.021,inactive: -0.039,inactive: -0.008,inactive: 0.039,inactive: -0.032
MME (UniProt P08473),,,,,inactive: -0.076,,,inactive: -0.146,,
MOCS2 (UniProt O96033),,inactive: 0.107,inactive: -0.178,inactive: 0.113,,,,,,inactive: -0.271
MRPL52 (UniProt Q86TS9),,inactive: 0.016,,,,,,,,

# Part of the list above in a different format:
Target	log2 fold change [1]	log2 fold change (filanesib)	log2 fold change (zotarolimus)	log2 fold change (idasanutlin)	log2 fold change (alisertib)	log2 fold change [2]	log2 fold change (gefitinib)	log2 fold change [3]	log2 fold change (lapatinib)	log2 fold change (pictilisib)
MICOS13 (UniProt Q5XKP0)	inactive: 0	inactive: -0.095	inactive: -0.048	inactive: -0.144	inactive: -0.014	inactive: -0.082	inactive: -0.032	inactive: 0.079	inactive: -0.063	inactive: -0.001
MME (UniProt P08473)					inactive: -0.076			inactive: -0.146		
